PubChem BioAssay AID504774 | Drosophila RNAi Screening Center, 2011
In all, the deposit lists about 23,000 reagents; below is an unselected part of those that have a named target and a result. 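Values are quantile-normalised luminescence on an arbitrary scale; higher means more cells surviving MMS.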 Further read-outs or replicates are left out here.

Aim: 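Knock-downs that shift viability of MMS-exposed cells relative to untreated ones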 (primary screen)
Cell system: Drosophila Kc167 cells
Knock-down reagent: long dsRNA against Drosophila genes, about 0.25 µg dsRNA per well
Time to read-out: about 6 days: 3 days knock-down, then 3 days with or without MMS
Conditions: methyl methanesulphonate 0.004% (w/v) for 3 days after knock-down
Measured: 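Viability in wells given MMS, read as ATP luminescence, normalised by quantiles plate by plate and averaged across replicates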
Scale: mean viability with MMS: higher = more surviving cells after MMS

| gene | dsRNA | mean viability with MMS |
| --- | --- | --- |
| CG15643 (GeneID 32489) | DRSC19679 | 3.69e6 |
| sprt (GeneID 246397) | DRSC07323 | 3.67e6 |
| Phb2 (GeneID 46038) | DRSC06512 | 1.72e6 |
| CG1998 (GeneID 32300) | DRSC19829 | 3.63e6 |
| dgt5 (GeneID 36364) | DRSC07280 | 3.45e6 |
| CG8419 (GeneID 34118) | DRSC03087 | 3.72e6 |
| CG13965 (GeneID 35280) | DRSC02307 | 3.61e6 |
| CG32987 (GeneID 318273) | DRSC22373 | 3.15e6 |
| FBXO11 (GeneID 41209) | DRSC16497 | 3.54e6 |
| Lsm12a (GeneID 32167) | DRSC19702 | 3.65e6 |
| Pvr (GeneID 34127) | DRSC03080 | 2.40e6 |
| CG5989 (GeneID 38984) | DRSC10565 | 3.49e6 |
| CG13124 (GeneID 34310) | DRSC02220 | 3.70e6 |
| Tengl4 (GeneID 41321) | DRSC15620 | 3.51e6 |
| disp (GeneID 44274) | DRSC12376 | 3.49e6 |
| Rbfox1 (GeneID 39198) | DRSC09034 | 3.65e6 |
| Rbfox1 (GeneID 39198) | DRSC10157 | 3.48e6 |
| Rbfox1 (GeneID 39198) | DRSC10320 | 3.17e6 |
| Rbfox1 (GeneID 39198) | DRSC21378 | 3.58e6 |
| Rbfox1 (GeneID 39198) | DRSC22992 | 3.58e6 |
| eIF5B (GeneID 44261) | DRSC08429 | 3.49e6 |
| eIF5B (GeneID 44261) | DRSC08710 | 3.37e6 |
| CG13676 (GeneID 38906) | DRSC10035 | 3.32e6 |
| CG13239 (GeneID 40503) | DRSC11694 | 3.53e6 |
| CG10907 (GeneID 39331) | DRSC09804 | 3.76e6 |
| Creld (GeneID 33166) | DRSC00308 | 3.54e6 |
| CG14227 (GeneID 32978) | DRSC19584 | 2.06e6 |
| CG31778 (GeneID 261616) | DRSC00283 | 3.65e6 |
| Zcchc7 (GeneID 39883) | DRSC11099 | 3.59e6 |
| didum (GeneID 35680) | DRSC07603 | 3.57e6 |
| CG1835 (GeneID 33057) | DRSC20560 | 3.53e6 |
| CG31534 (retired record) (GeneID 40585) | DRSC12141 | 3.44e6 |
| CG31534 (retired record) (GeneID 40585) | DRSC12289 | 3.49e6 |
| papi (GeneID 33401) | DRSC00693 | 3.34e6 |
| nej (GeneID 43856) | DRSC18006 | 3.23e6 |
| nej (GeneID 43856) | DRSC18801 | 2.57e6 |
| CG15368 (GeneID 31861) | DRSC18040 | 3.37e6 |
| CG15368 (GeneID 31861) | DRSC23291 | 3.77e6 |
| CG13310 (GeneID 39007) | DRSC09981 | 3.46e6 |
| spartin (GeneID 40582) | DRSC12187 | 3.47e6 |
| CG32568 (GeneID 32659) | DRSC19913 | 3.56e6 |
| Pten (GeneID 43991) | DRSC03402 | 3.41e6 |
| CG6443 (GeneID 34477) | DRSC02958 | 3.42e6 |
| CG31099 (GeneID 326117) | DRSC14252 | 3.30e6 |
| Cpr49Ah (GeneID 36354) | DRSC07204 | 3.46e6 |
| Actn (GeneID 31166) | DRSC17724 | 3.58e6 |

Records listed so far whose gene name begins with N or n (2):
| gene | dsRNA | mean viability with MMS |
| --- | --- | --- |
| nej (GeneID 43856) | DRSC18006 | 3.23e6 |
| nej (GeneID 43856) | DRSC18801 | 2.57e6 |
